PubChem BioAssay AID504807, Drosophila RNAi Screening Center | 2011
Test: 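Factors needed for cleavage of pre-mRNA from replication-dependent histone genes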. Cell system: Drosophila Dmel-2 cells. Reagents: long dsRNA against Drosophila genes, 250 ng dsRNA per well. Timing: about 5 days (reporter added on day 3, imaged 2 days later). Measured: 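Per-well images of a GFP reporter, scored by eye from image collages against nearby wells and a U7 snRNA oligo positive control; hits graded weak, medium or strong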. Active means: 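Wells judged by eye for brighter GFP reporter signal, and only dsRNAs whose increase held up on retesting count as hits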. Meaning of the calls: active = confirmed hit; inactive = not confirmed.
The reagents shown are a selection, not the whole library. 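All listed dsRNAs looked positive in the first pass but only 20 held up on retesting; weak-to-strong grades are not deposited.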 Names joined by + are all predicted targets of the reagent. Reagent sequences are not shown.

With CG7634, what does the deposit list?
Outcome: inactive

What is on record for Cpsf73?
Outcome: active

What did the screen give for Tdrd3?
Outcome: inactive

With obst-B, how do the results read?
Outcome: inactive

Which result is listed for CG5235?
Outcome: inactive

What is on record for aln?
Outcome: inactive

For Actn3, what was measured?
Outcome: inactive

With x16, what was measured?
Outcome: active

Which result is listed for Dr?
Outcome: inactive

For CG34280, what was measured?
Outcome: inactive

How did the screen score CG33493?
Outcome: inactive

For Or7a, how do the results read?
Outcome: inactive

What is on record for qsm?
Outcome: inactive

With bab1, what was measured?
Outcome: inactive

What is on record for CG30089?
Outcome: inactive

For Nelf-E, what was measured?
Outcome: active

For bol, what was measured?
Outcome: inactive

How did the screen score CG34376?
Outcome: inactive

For CkIIalpha-i1, what was measured?
Outcome: active

How did the screen score ORMDL?
Outcome: inactive

For Hmr, what was measured?
Outcome: inactive

How did the screen score CG17721?
Outcome: inactive

For Gyf, how do the results read?
Outcome: active

For trx, what was measured?
Outcome: inactive

How did the screen score Rack1?
Outcome: active

With Yeti, what was measured?
Outcome: active

How did the screen score Frl?
Outcome: inactive

How did the screen score Cpr50Ca?
Outcome: inactive

What is on record for CG15784?
Outcome: inactive

For Pss, what was measured?
Outcome: inactive

Which result is listed for AGO2?
Outcome: inactive

With Tgs1 + moi, what was measured?
Outcome: inactive

With Fer1HCH, what does the deposit list?
Outcome: inactive

What is on record for Cpsf100?
Outcome: active

For conu, what does the deposit list?
Outcome: inactive

For CG9686, what does the deposit list?
Outcome: inactive

What is on record for CG14088?
Outcome: inactive

With CG31454, what does the deposit list?
Outcome: inactive

With CG14739, what does the deposit list?
Outcome: inactive

What did the screen give for CG11598?
Outcome: inactive

How did the screen score MRG15?
Outcome: inactive

Which result is listed for Cpr78Ca?
Outcome: inactive

Which result is listed for caz?
Outcome: inactive

What is on record for CG11262?
Outcome: inactive

How did the screen score dtn?
Outcome: inactive

With flr, what does the deposit list?
Outcome: inactive

For LManV, what does the deposit list?
Outcome: inactive

With Pgant9, what does the deposit list?
Outcome: inactive

What is on record for CG31643?
Outcome: inactive

For Aef1, how do the results read?
Outcome: inactive

What is on record for mfrn?
Outcome: inactive

What did the screen give for Tti1?
Outcome: inactive

For LysC (retired record) + LysD, what does the deposit list?
Outcome: inactive

With CG32187, how do the results read?
Outcome: inactive

With CG5612, what was measured?
Outcome: inactive

Which result is listed for CG15034?
Outcome: inactive

What is on record for MBD-R2?
Outcome: active

What did the screen give for sgg?
Outcome: inactive

What did the screen give for flw?
Outcome: inactive

How did the screen score Pc?
Outcome: inactive

What did the screen give for CG10710?
Outcome: inactive

With sti, how do the results read?
Outcome: inactive

What did the screen give for shep?
Outcome: inactive

With CG10041, what was measured?
Outcome: inactive

For CG7518, what does the deposit list?
Outcome: inactive

With CG15456, what does the deposit list?
Outcome: inactive

With CG34230, what was measured?
Outcome: inactive

Which result is listed for Slbp?
Outcome: active

How did the screen score Gr64b?
Outcome: inactive

For CG14417, how do the results read?
Outcome: inactive

With CG5611, how do the results read?
Outcome: inactive

What is on record for Lsm10?
Outcome: active

For CstF50, what was measured?
Outcome: inactive

Records above whose gene name begins with M or m:
MRG15 | Outcome: inactive
mfrn | Outcome: inactive
MBD-R2 | Outcome: active
